Measurements taken from publication PMC12204631.
Results are given in words; binding and its absence hold for the method and conditions named. Binding seen in cells or lysates may run through a third protein. These calls come from enrichment with a bait or labelling near it, and not all partners need be listed. Tags and fused reporters may be left off the sequences shown. One block for each binder: values may come before it.

Molecular target: T1, 6HIS-HA-JHD2 (S. cerevisiae) (UniProt P47156)
T1 sequence: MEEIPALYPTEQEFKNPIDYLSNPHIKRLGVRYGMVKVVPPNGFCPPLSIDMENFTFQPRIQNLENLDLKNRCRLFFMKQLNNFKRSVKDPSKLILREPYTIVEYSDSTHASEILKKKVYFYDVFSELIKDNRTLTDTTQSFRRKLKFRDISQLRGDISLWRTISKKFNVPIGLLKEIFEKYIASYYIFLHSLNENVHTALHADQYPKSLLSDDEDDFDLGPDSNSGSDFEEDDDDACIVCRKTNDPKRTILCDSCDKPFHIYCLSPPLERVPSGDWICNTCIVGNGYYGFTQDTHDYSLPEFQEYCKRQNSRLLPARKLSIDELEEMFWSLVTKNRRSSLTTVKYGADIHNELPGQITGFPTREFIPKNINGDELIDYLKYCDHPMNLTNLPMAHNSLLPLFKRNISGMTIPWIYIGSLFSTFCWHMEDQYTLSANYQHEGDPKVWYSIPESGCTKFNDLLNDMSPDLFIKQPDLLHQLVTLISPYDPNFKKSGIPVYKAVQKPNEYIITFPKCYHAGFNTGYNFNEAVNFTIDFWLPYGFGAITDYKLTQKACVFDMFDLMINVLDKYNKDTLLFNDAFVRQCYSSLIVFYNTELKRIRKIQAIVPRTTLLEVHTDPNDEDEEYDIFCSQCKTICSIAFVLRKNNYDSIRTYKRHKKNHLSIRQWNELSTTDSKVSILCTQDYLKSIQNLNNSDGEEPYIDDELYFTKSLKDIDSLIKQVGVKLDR
Experiment: affinity purification with mass spectrometry; whole cell extracts of a wild-type strain with 6HIS-HA-JHD2 induced from the GAL1 promoter for 6 hours; Ni-NTA agarose and anti-HA agarose beads at 4°C for 24 hours; proteins found with the empty vector strain excluded

binding: binds
B1: CHL1 (protein, UniProt P22516 1-861)
chain: MDKKEYSETFYHPYKPYDIQVQLMETVYRVLSEGKKIAILESPTGTGKTLSLICATMTWLRMNKADIFTRMETNIKTNEDDSENLSDDEPDWVIDTYRKSVLQEKVDLLNDYEKHLNEINTTSCKQLKTMCDLDKEHGRYKSVDPLRKKRKGARHLDVSLEEQDFIPRPYESDSENNDTSKSTRGGRISDKDYKLSELNSQIITLLDKIDGKVSRDPNNGDRFDVTNQNPVKIYYASRTYSQLGQFTSQLRLPSFPSSFRDKVPDEKVKYLPLASKKQLCINPKVMKWKTLEAINDACADLRHSKEGCIFYQNTNEWRHCPDTLALRDMIFSEIQDIEDLVPLGKSLGICPYYASREALPIAEVVTLPYQYLLSESTRSSLQINLENSIVIIDEAHNLIETINSIYSSQISLEDLKNCHKGIVTYFNKFKSRLNPGNRVNLLKLNSLLMTLIQFIVKNFKKIGQEIDPNDMFTGSNIDTLNIHKLLRYIKVSKIAYKIDTYNQALKEEESSKNENPIKETHKKSVSSQPLLFKVSQFLYCLTNLTSEGQFFFEKNYSIKYMLLEPSKPFESILNQAKCVVLAGGTMEPMSEFLSNLLPEVPSEDITTLSCNHVIPKENLQTYITNQPELEFTFEKRMSPSLVNNHLFQFFVDLSKAVPKKGGIVAFFPSYQYLAHVIQCWKQNDRFATLNNVRKIFYEAKDGDDILSGYSDSVAEGRGSLLLAIVGGKLSEGINFQDDLCRAVVMVGLPFPNIFSGELIVKRKHLAAKIMKSGGTEEEASRATKEFMENICMKAVNQSVGRAIRHANDYANIYLLDVRYNRPNFRKKLSRWVQDSINSEHTTHQVISSTRKFFSMRSLNSR

binding: binds
B2: CDC14 (protein, UniProt Q00684 1-551)
chain: MRRSVYLDNTIEFLRGRVYLGAYDYTPEDTDELVFFTVEDAIFYNSFHLDFGPMNIGHLYRFAVIFHEILNDPENANKAVVFYSSASTRQRANAACMLCCYMILVQAWTPHQVLQPLAQVDPPFMPFRDAGYSNADFEITIQDVVYGVWRAKEKGLIDLHSFNLESYEKYEHVEFGDFNVLTPDFIAFASPQEDHPKGYLATKSSHLNQPFKSVLNFFANNNVQLVVRLNSHLYNKKHFEDIGIQHLDLIFEDGTCPDLSIVKNFVGAAETIIKRGGKIAVHCKAGLGRTGCLIGAHLIYTYGFTANECIGFLRFIRPGMVVGPQQHWLYLHQNDFREWKYTTRISLKPSEAIGGLYPLISLEEYRLQKKKLKDDKRVAQNNIEGELRDLTMTPPSNGHGALSARNSSQPSTANNGSNSFKSSAVPQTSPGQPRKGQNGSNTIEDINNNRNPTSHANRKVVIESNNSDDESMQDTNGTSNHYPKVSRKKNDISSASSSRMEDNEPSATNINNAADDTILRQLLPKNRRVTSGRRTTSAAGGIRKISGSIKK

binding: binds
B3: GLC8 (protein, UniProt P41818 1-229)
chain: MGGILKNPLALSPEQLAQQDPETLEEFRRQVYENTQKNAKLTSHKRNIPGLDNTKEEGEIIGTSSTFLPKDTLSLKHEQDMLAKMTPEERVQWNQRNLAENEITKKQFQDIHIDEPKTPYQGAVDPHGEYYRVDDDEDEDNSDKKPCQVANDDIDDLSLGEPEFEIKENKQPDFETNDENDEDSPEARHKKFEEMRKKHYDVRAIFNKKSREALKDEDEDEDDSTTKEP

binding: binds
B4: GIP4 (protein, UniProt P39732 1-760)
chain: MVDVQKRKKLLAKAAASASIPAIKGSVPLDSYDIKIIQYKNALYKLNELNRLLNVLVPHLKKKRDNDESYKIIPLVNFILSLCEGPIFNVSPVLAKRYHLLCRFQLIKLSEVQQRLSTNFIDVEGWMFPEEVPLDHYKSCIYNNSLQWKILNSLSCIAQNAIKIYNAKLRQILLERDAYKARSLPFDTSIIEDLLNPVEMTLILDLAVLINDPVRDKSTHSFYKLQWQVMEKLNSCVHSKIFPILRTYYNQLQKFSETRPTSLSNLQKDLPHWEWTLHRIYTFHLRVFSVLCVIISFSRQIFLPNKQHFLDIKTRLSSENVYHYDLIICELMALLSPECDDVTALFELQENLKFWTQTARTDNNSSRTPIFHLQPGLVVELFNNHICKIIPKLRSIMGLLSNWMDCWKYIEKNYKTFDETNDLRENLKEKLERDKALYLEVKNAKSKLKKKPSITKLPASSSPSPSPTSSASPSRQASLESIRTRARAHLASNSSRSPSVSPVRTTFNNKNAETKKSVVSPEKRKLINGRRPRSSSLQSYTNKQQTSYLNSTRHPSIAPPSKLNNQRSNSLQSSTMTLNQKIVQDTVRHLMNKSASTPNPSASSSLAPSPKVSSINNTSSGKSSSTLIANSSDTLAIETLTLDPESNSSELSIKRVRFAGVPPMTEAENPKPTKVGWYKKPAVLHYPPIPASAMIKPLQHKSKYNTLRQEEGFTFRKSLRDGLEWENGESGSETTMMPFGIEIKESTGHRIASKIRSKLR
